Results published in PubChem BioAssay AID330 (DTP/NCI, 2004).
The list shows only some results of the screen, not a fair sample: it gathers tests that were run many times, whatever their T/C, doses with no T/C, and many T/C values between a quarter and a half above the control. Further doses and runs are listed elsewhere. T/C gives the treated animals as a percentage of the vehicle group. Some entries give survivors of the animals treated and no T/C: the source holds a T/C of zero for them, seemingly a mark for toxic or unscored doses. Some survivor counts are full or nearly so, which does not show that the dose was tolerated: the source hardly ever lists a survival T/C far under the control, and the zero likely stands for such cases as well. Survivors were counted at the toxicity check, usually on the fifth day, unless a day is given; later deaths do not show. Schedules are NCI's codes, read here as Q, the interval in days (D) or hours (H), X, the number of doses. Some schedule codes hold Z or #, which are not explained here. Some molecules as drawn cover several salts, stereoisomers or complexes of the source; a dose is that of the sample tested. Some doses were run more than once; the values are given in rising order. For survival time, this PubChem deposit counts one and a half times the control or more as active, and values a quarter to a half above the control carry no call in these data; other NCI protocols may use other cut-offs. Marks such as (2×) stand for listed records that agree.

System: P388 leukemia ip, CD2F1 mice, survival T/C
Experiment: NCI In Vivo Anticancer Drug Screen. Data for tumor model P388 Leukemia (intraperitoneal) in CD2F1 (CDF1) mice
Details: T/C endpoint: median survival time, higher T/C = longer survival
[1] = dose: 12.5 mg/kg/injection, schedule: Q01DX009 (ip), vehicle: saline with Tween-80
[2] = dose: 25.0 mg/kg/injection, schedule: Q01DX009 (ip), vehicle: saline with Tween-80
[3] = dose: 50.0 mg/kg/injection, schedule: Q01DX009 (ip), vehicle: saline with Tween-80
[4] = dose: 50.0 mg/kg/injection, schedule: Q01DX009 (ip), vehicle: saline
[5] = dose: 100.0 mg/kg/injection, schedule: Q01DX009 (ip), vehicle: saline
[6] = dose: 200.0 mg/kg/injection, schedule: Q01DX009 (ip), vehicle: Klucel (hydroxypropylcellulose) (HPC)
[7] = dose: 240.0 mg/kg/injection, schedule: Q01DX005 (ip), vehicle: saline

With `CNC1CCCc2c(O)cccc21` (stereo not given) the survivor count (dose: 200.0 mg/kg/injection, schedule: Q04DX003 (ip), vehicle: Klucel (hydroxypropylcellulose) (HPC)) was 2 of 6.
For `NC(CCC(=O)O)(C(=O)O)c1ccccc1` (stereo not given), the survivor count (dose: 0.78 mg/kg/injection, schedule: Q01DX009 (ip), vehicle: saline with Tween-80) was 6 of 6, the survivor count (dose: 6.25 mg/kg/injection, schedule: Q01DX009 (ip), vehicle: saline with Tween-80) was 6 of 6 and the survivor count [1] was 6 of 6. The survivor count [2] was 6 of 6 and the survivor count [3] was 6 of 6.
In the case of `Cc1cc(=O)oc2cc(OC(=O)Nc3ccc(Cl)cc3C(F)(F)F)ccc12`, the survivor count (dose: 240.0 mg/kg/injection, schedule: Q01DX005 (ip), vehicle: saline with Tween-80) is reported as 5 of 6.
With `O=c1[nH]c2c([N+](=O)[O-])cc(Cl)cc2nc1/C=C(\O)c1ccccc1` the survivor count (dose: 240.0 mg/kg/injection, schedule: Q01DX005 (ip), vehicle: Klucel (hydroxypropylcellulose) (HPC)) was 6 of 6.
With `CCCCN1C=C(C)N(CCCC)CC1` the survivor count (dose: 100.0 mg/kg/injection, schedule: Q01DX005 (ip), vehicle: saline with Tween-80) was 5 of 5 and the survivor count (dose: 200.0 mg/kg/injection, schedule: Q01DX005 (ip), vehicle: saline with Tween-80) was 0 of 5.
In the case of `COc1cc2cccc(N)c2cc1OC`, the survivor count (dose: 100.0 mg/kg/injection, schedule: Q01DX009 (ip), vehicle: water) is reported as 1 of 6.
`CN(CCC#N)c1ccc(/C=C(\C#N)C(N)=O)cc1` was tested, and the survivor count (dose: 80.0 mg/kg/injection, schedule: Q01DX009 (ip), vehicle: saline with Tween-80) was 6 of 6.
In the case of `CCC[CH2][Sn]1([CH2]CCC)[O]C(=O)CSC(=S)SCC(=O)[O]1`, the survivor count [1] is reported as 0 of 6, the survivor count [2] is reported as 0 of 6 and the survivor count [4] is reported as 2 of 6. For the same compound, the survivor count [5] was 0 of 6 and the survivor count (dose: 200.0 mg/kg/injection, schedule: Q01DX009 (ip), vehicle: saline) was 0 of 6.
In the case of `O=C(O)c1ccc(-c2nn[nH]n2)cc1`, the survivor count (dose: 50.0 mg/kg/injection, schedule: Q01DX009 (ip), vehicle: Klucel (hydroxypropylcellulose) (HPC)) is reported as 6 of 6.
In the case of `COc1ccc(/C=C2/C(=O)N(c3ccccc3)N=C2C)c(OC)c1`, the survivor count (dose: 120.0 mg/kg/injection, schedule: Q01DX005 (ip), vehicle: Klucel (hydroxypropylcellulose) (HPC)) is reported as 6 of 6.
For `O=C(Nc1ccc(-c2c[nH]c(=O)c([N+](=O)[O-])c2)cc1)OCc1ccccc1`, the survivor count [2] was 6 of 6, the survivor count [3] was 6 of 6 and the survivor count (dose: 100.0 mg/kg/injection, schedule: Q01DX009 (ip), vehicle: saline with Tween-80) was 6 of 6. The survivor count (dose: 200.0 mg/kg/injection, schedule: Q01DX009 (ip), vehicle: saline with Tween-80) was 6 of 6.
For `CC1NCCCN(CCN(C)C)CCCNC(C)c2cccc1n2` (stereo not given), the survivor count (dose: 400.0 mg/kg/injection, schedule: Q01DX001 (ip), vehicle: saline) was 0 of 6.
With `Cc1cc(O)c(N=Nc2ccc(C(=O)O)cc2)cc1C` the survivor count (dose: 200.0 mg/kg/injection, schedule: Q04DX003 (ip), vehicle: saline with Tween-80) was 6 of 6.
With `CCCCCCCCCCCCCCCC[N+](C)(C)CCNC(=O)c1ccccc1` the survivor count (dose: 25.0 mg/kg/injection, schedule: Q01DX009 (ip), vehicle: water) was 1 of 6 and the survivor count (dose: 50.0 mg/kg/injection, schedule: Q01DX009 (ip), vehicle: water) was 1 of 6.
In the case of `CNC(=O)Nc1ccnc2ccc3c(ncn3C(=O)NC)c12`, the survivor count (dose: 400.0 mg/kg/injection, schedule: Q01DX001 (ip), vehicle: saline with Tween-80) is reported as 0 of 6.
In the case of `CN1CCCN(C)C1c1ccc(Cl)cc1`, the survivor count (dose: 6.25 mg/kg/injection, schedule: Q01DX009 (ip), vehicle: saline sonified) is reported as 6 of 6.
In the case of `C[N+]1(CCC(=O)c2ccccc2)CCCCC1`, the survivor count [4] is reported as 3 of 6 and the survivor count [5] is reported as 0 of 6.
For `O=C1NC(Cc2ccccc2)C(=O)NC1Cc1ccccc1` (stereo not given), the survivor count (dose: 100.0 mg/kg/injection, schedule: Q01DX009 (ip), vehicle: Klucel (hydroxypropylcellulose) (HPC)) was 5 of 6 and the survivor count [6] was 0 of 6.
For `OC(c1cc(-c2cccc(Cl)c2)nc2ccccc12)C1CCCCN1` (stereo not given), the survivor count (dose: 200.0 mg/kg/injection, schedule: Q01DX005 (ip), vehicle: Klucel (hydroxypropylcellulose) (HPC)) was 1 of 5.
For `COC(=O)c1cc(-c2cccnc2)[nH]c(=O)c1C#N`, the survivor count [7] was 2 of 6.
With `CCC1(O)CN2CCc3c([nH]c4ccccc34)C(C(=O)OC)(c3cc4c(cc3OC)N(C)C3C(O)(C(=O)OC)C(OC(C)=O)C5(CC)C=CCN6CCC43C65)CC(C2=O)C1O` (stereo not given) the T/C (dose: 50.0 mg/kg/injection, schedule: Q01DX001 (ip), vehicle: distilled water + Tween-80) was 130 % of control, the T/C (dose: 100.0 mg/kg/injection, schedule: Q01DX001 (ip), vehicle: distilled water + Tween-80) was 144 % of control and the T/C (dose: 200.0 mg/kg/injection, schedule: Q01DX001 (ip), vehicle: suspension in saline) was 131 % of control. The survivor count (dose: 400.0 mg/kg/injection, schedule: Q01DX001 (ip), vehicle: distilled water + Tween-80) was 0 of 5 and the survivor count (dose: 400.0 mg/kg/injection, schedule: Q01DX001 (ip), vehicle: suspension in saline) was 0 of 3.
For `COC(CCC(C)C1OC23CC(OC(=O)CC(C(C)O)OC(=O)CC(O)(O2)C(C)CC3(C)C)C1C)c1cccc(O)c1` (stereo not given), the survivor count (dose: 12.5 micrograms/kg/injection, schedule: Q01DX009 (ip), vehicle: saline + Tween-80 + alcohol) was 6 of 6, the T/C (dose: 12.5 micrograms/kg/injection, schedule: Q01DX009 (ip), vehicle: saline + alcohol) was 130 % of control and the survivor count (dose: 25.0 micrograms/kg/injection, schedule: Q01DX009 (ip), vehicle: saline + Tween-80 + alcohol) was 6 of 6. For the same compound, the T/C (dose: 25.0 micrograms/kg/injection, schedule: Q01DX009 (ip), vehicle: saline + alcohol) was 141 % of control, the survivor count (dose: 50.0 micrograms/kg/injection, schedule: Q01DX009 (ip), vehicle: saline + Tween-80 + alcohol) was 6 of 6 and the survivor count (dose: 50.0 micrograms/kg/injection, schedule: Q01DX009 (ip), vehicle: saline + alcohol) was 5 of 6. For the same compound, the survivor count (dose: 100.0 micrograms/kg/injection, schedule: Q01DX009 (ip), vehicle: saline + alcohol) was 6 of 6.
In the case of `Cc1sc2ccc3ccccc3c2[n+]1C`, the T/C (dose: 60.0 mg/kg/injection, schedule: Q01DX005 (ip), vehicle: saline) is reported as 104 (2×), 113, 123 % of control, the survivor count (dose: 120.0 mg/kg/injection, schedule: Q01DX005 (ip), vehicle: saline) is reported as 2 of 6 and 3 of 6 and the survivor count [7] is reported as 0 of 6 and 2 of 6.
With `Cc1ccc(S(=O)(=O)Sc2nnnn2C)cc1` the survivor count [6] was 0 of 6.
`CCC1OC(=O)CC(O)C(C)C(OC2OC(C)C(O)C(N(C)C)C2O)C(CC=O)CC(C)C(=O)/C=C/C2(C)OC2C1C` (stereo not given) was tested, and the T/C (dose: 37.5 mg/kg/injection, schedule: Q01DX009 (ip), vehicle: Klucel (hydroxypropylcellulose) (HPC)) was 125 % of control.
With `COc1ccc(OC)c(C(=O)C=C(C(F)(F)F)C(F)(F)F)c1` the T/C (dose: 50.0 mg/kg/injection, schedule: Q01DX009 (ip), vehicle: other) was 140 % of control, the T/C (dose: 100.0 mg/kg/injection, schedule: Q04DX003 (ip), vehicle: other) was 127 % of control and the survivor count (dose: 200.0 mg/kg/injection, schedule: Q04DX003 (ip), vehicle: other) was 3 of 6.
In the case of `Cc1ccc(N=Nc2c(C)nn(C(=S)S)c2C)cc1`, the survivor count (dose: 400.0 mg/kg/injection, schedule: Q04DX002 (ip), vehicle: Klucel (hydroxypropylcellulose) (HPC)) is reported as 1 of 5.
With `c1ccc(CN2COc3c(ccc4c3OCN(Cc3ccccc3)C4)C2)cc1` the survivor count (dose: 12.5 mg/kg/injection, schedule: Q01DX009 (ip), vehicle: Klucel (hydroxypropylcellulose) (HPC)) was 5 of 6.
With `C/C1=C2N=C(/C=C3N=C(/C(C)=C4\[N-]C(C(CC(N)=O)C4(C)CCC(=O)NCC(C)OP(=O)(O)OC4C(CO)OC(n5cnc6cc(C)c(C)cc65)C4O)C4(C)N=C1C(CCC(N)=O)C4(C)CC(N)=O)C(CCC(N)=O)C\3(C)C)C(CCC(N)=O)C/2(C)CC(N)=O.[CH2-]C1OC(n2cnc3c(N)ncnc32)C(O)C1O.[Co+2]` (stereo not given) the survivor count (dose: 883.0 micrograms/kg/injection, schedule: Q#A X Z (ip), vehicle: water) was 10 of 10.
In the case of `CN(C)CC(CN(C)C)C(=O)C(C)(C)C`, the survivor count [7] is reported as 0 of 6.
In the case of `COC(=O)C(Cc1cnc2nc(N)nc(N)c2n1)C(=O)OC`, the survivor count (dose: 200.0 mg/kg/injection, schedule: Q01DX009 (ip), vehicle: distilled water + Tween-80) is reported as 0 of 5.
